No constants are given. Whether binding was seen depends on the method and setting. In cells and extracts the contact can be indirect. A yes stands for co-enrichment or nearness to the bait. Other partners may have been found.

Protein sequences, listed by entry. Tags and fused reporters are not part of them.
UniProt Q13574: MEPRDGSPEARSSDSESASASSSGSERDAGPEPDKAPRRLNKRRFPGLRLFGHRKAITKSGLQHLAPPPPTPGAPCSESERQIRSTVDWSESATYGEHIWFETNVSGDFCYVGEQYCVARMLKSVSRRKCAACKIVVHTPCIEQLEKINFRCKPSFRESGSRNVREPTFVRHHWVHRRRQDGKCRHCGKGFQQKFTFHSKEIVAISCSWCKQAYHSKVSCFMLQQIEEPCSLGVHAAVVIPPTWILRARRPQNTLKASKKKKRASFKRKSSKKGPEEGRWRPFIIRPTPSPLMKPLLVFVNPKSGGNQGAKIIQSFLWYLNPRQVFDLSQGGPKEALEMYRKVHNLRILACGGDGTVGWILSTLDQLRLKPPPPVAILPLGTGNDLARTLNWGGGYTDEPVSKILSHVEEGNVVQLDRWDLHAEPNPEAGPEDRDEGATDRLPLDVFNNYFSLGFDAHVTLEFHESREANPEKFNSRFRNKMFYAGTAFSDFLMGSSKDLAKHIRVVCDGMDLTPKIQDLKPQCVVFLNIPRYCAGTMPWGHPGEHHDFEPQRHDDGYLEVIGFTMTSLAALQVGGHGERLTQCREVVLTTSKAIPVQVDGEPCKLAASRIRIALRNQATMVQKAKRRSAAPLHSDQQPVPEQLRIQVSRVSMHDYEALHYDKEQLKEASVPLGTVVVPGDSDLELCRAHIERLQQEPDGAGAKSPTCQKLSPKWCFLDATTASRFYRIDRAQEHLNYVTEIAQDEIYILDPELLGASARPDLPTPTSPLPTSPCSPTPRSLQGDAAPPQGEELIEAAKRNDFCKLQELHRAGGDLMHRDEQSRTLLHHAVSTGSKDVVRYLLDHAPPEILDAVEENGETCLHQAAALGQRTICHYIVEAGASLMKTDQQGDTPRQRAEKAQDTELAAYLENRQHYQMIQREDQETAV
UniProt P28482: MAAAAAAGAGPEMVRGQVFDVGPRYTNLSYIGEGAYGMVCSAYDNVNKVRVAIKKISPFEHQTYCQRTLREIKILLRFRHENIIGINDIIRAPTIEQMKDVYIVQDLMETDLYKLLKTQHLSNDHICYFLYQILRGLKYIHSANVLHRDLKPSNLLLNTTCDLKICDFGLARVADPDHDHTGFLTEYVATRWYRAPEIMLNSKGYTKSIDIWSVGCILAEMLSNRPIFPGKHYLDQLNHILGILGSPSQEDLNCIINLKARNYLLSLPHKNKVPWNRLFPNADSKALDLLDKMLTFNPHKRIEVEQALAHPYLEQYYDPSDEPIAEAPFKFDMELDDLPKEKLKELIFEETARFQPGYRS
UniProt P27361: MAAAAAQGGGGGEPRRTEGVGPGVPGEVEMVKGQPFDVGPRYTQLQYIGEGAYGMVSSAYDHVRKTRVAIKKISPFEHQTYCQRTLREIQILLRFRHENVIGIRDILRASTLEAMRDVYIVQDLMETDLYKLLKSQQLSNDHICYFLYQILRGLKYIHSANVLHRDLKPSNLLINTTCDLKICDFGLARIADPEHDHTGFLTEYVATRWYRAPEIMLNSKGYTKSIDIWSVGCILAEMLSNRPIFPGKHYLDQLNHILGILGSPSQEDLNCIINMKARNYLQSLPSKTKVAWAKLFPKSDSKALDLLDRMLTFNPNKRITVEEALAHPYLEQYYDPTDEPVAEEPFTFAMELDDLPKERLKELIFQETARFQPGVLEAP

Data on two substances can be found in article PMC6328465.

In the test the target is 3 × FLAG-DGKZ (diacylglycerol kinase zeta) (UniProt Q13574). As to the kind of experiment: affinity purification with mass spectrometry; 3xFLAG-DGKZ complex purified from stable HOS cells on anti-FLAG magnetic beads; SDS-PAGE bands absent from the control excised, in-gel trypsin digestion, LC-MS/MS (Q-Exactive).

As for “ERK2 (from UniProt P28482 1-360) (enzyme)”, the binding entry is given as “binds”. In the case of “ERK1 (from UniProt P27361 1-379) (enzyme)”, the binding entry is given as “binds”.
